“And” between values parts separate entries of the source, which are not always exact repeats. Identical values can stand only once. The inconclusive results got no clear call from the source; some entries with a clear call stand among them for comparison. Where the call is inconclusive, the potency comes from a doubtful curve fit. The source made the active and inactive calls. Calls follow the shape of the dose curve; as a rule, active = well fitted inhibition curve with a large enough effect; inconclusive = small, poorly fitted or top-dose-only effect, or effect the other way; inactive = flat fitted curve, though single readings scatter.
Experiment: qHTS Assay Multiplex Screening to Identify Dual Action Probes in a Cell Model of Huntington: Cytoprotection (Protease relase)
Details: PC12 HttQ103 cells, Cytotox-Glo protease release, 40 h; series mostly up to 46.1 µM; activity change, negative = inhibition: at the top concentration
Excerpt: NIH Chemical Genomics Center [NCGC]
NIH Molecular Libraries Probe Production centers Network [MLPCN]
Assay Submitter (PI): Wei Zheng
Huntington's disease is a neurodegenerative disorder caused by a trinucleotide repeat expansion in Exon 1 of the Huntingtin gene. The CAG trinucleotide encodes glutamine and polyglutamine expansions cause cell death in selective areas of the brain. Huntington polyglutamine repeats have the tendency to form aggregates which are observable in later stages of the disease. The exact nature of the aggregates, whether toxic, protective, or insignificant, is unclear.
A stable PC12 cell line containing a gene fusion of Exon 1 of the Huntingtin gene linked to GFP under the control of the inducible ecdysone promoter were used as the cell-based model of Huntington Disease for high throughput screening. Exon 1 of the Huntingtin gene contained an expansion of 103 polyglutamines (Q103) which, when expressed, caused cell death and distinct, bright GFP aggregates. The amount of cell death and the size and intensity of GFP aggregates increased over time and induction level. In the primary screen, cell death were quantified with a measurement of ATP content in the cells. A maximal 40-50% of cell death was observed when the Huntington gene was induced in this cell line.
We optimized this assay in a homogeneous 1536 well format. A quantitative high throughput screen (qHTS) was conducted on the PC12 cells which were induced to express the toxic fusion construct. Small molecules which prevented cell death were considered hits, and were further studied. The present assay is an alternate assay for cytoprotection using Promega's Cytotox-Glo reagent.
PC12 cells stably containing a construct with an ecdysone inducible promoter expressing GFP fused to the exon 1 of HTTQ103 (Huntington protein which containing a 103 ployglutamine expansion) were used.
NCGC Assay Protocol Summary:
Sequence, Parameter, Description
1, Reagent, 5 uL 1500 cells/well 1536 TC treated White clear bottom plate
2, Compound, 23 nL Tebufenozide inducer (100 nM final) to all columns
3, Compound, 23 nL 40 uM to 0.5 nM Libraries
5, Reagent, 2 ul Promega's Cytotox-Glo assay reagent
6, Detector, 4 sec integration with a Viewlux Luminescent
Media consisted of phenol red free DMEM + 5% equine serum (Hyclone # SH30072.03 ), 5% supplemented Bovine Calf Serum (Hyclone # SH30074.03 ), 1x pen/strep, no G418

SMILES	Potency	activity change, negative = inhibition
Cn1nnnc1Sc1ncnc2scc(-c3cccc4ccccc34)c12	inconclusive: 14.1 µM [inhibitor, single point]	
Cc1ccccc1N=C(N)Nc1ccccc1C		inactive: 0.765%
OCCCn1c(-c2ccccc2)nc(=S)c2c1CCCC2	inconclusive: 35.5 µM [inhibitor, single point]	
CC(=O)Oc1cccc(C(=O)O)c1OC(C)=O		inactive: 7.72%
Cc1ccc(C(=O)Nc2nc(=O)n(C(=O)c3ccccc3C)s2)cc1	inconclusive: 5.62 µM [inhibitor, full curve]	
Cn1nnnc1Sc1ncnc2scc(-c3ccc(N)cc3)c12	inconclusive: 31.6 µM [inhibitor, partial curve, poor fit]	
Oc1c(C(Nc2nccs2)c2ccc(C(F)(F)F)cc2)ccc2cccnc12 (stereo not given)	inconclusive: 35.5 µM [inhibitor, single point]	
Cc1cccc(OCc2nc(C)cc(=O)[nH]2)c1	active: 10 µM	
N#Cc1c(C(F)(F)F)cc(-c2ccc(Cl)cc2)[nH]c1=O	active: 4.47 µM	
Cn1nnnc1Sc1ncnc2scc(-c3ccc(C(F)(F)F)cc3)c12	active: 12.6 µM	
C=C1CCC2[C@](C)(CO)[C@H](O)CC[C@@]2(C)[C@@H]1C/C=C1/C(=O)OC[C@H]1O (stereo not given in full)		inactive: 3.85%
Cc1ccccc1-c1csc2ncnc(Sc3nnnn3C)c12	inconclusive: 15.8 µM [activator, full curve, poor fit]	
CNCCCN1c2ccccc2CCc2ccccc21	inconclusive: 35.5 µM [inhibitor, single point]	
CN1C(=O)C2(c3ccccc31)C1CCCC=C1C(C#N)=C(N)C2(C#N)C#N (stereo not given)		inactive: -0.874%
CC(C(=O)O)c1ccc(N2Cc3ccccc3C2=O)cc1 (stereo not given)	active: 2.24 µM	
CCC(=O)O[C@]1(C(=O)CCl)[C@@H](C)C[C@H]2[C@@H]3CCC4=CC(=O)C=C[C@]4(C)[C@@]3(F)[C@@H](O)C[C@@]21C		inactive: 2.63%
FC(F)(F)c1nnc2c(Sc3ccccn3)nc3ccccc3n12	inconclusive: 10 µM [inhibitor, full curve, poor fit]	
Cn1nnnc1Sc1ncnc2scc(-c3ccccc3)c12	active: 2.82 µM and active: 7.94 µM	
Cn1cc(C2=C(c3ccc(Cl)cc3Cl)C(=O)NC2=O)c2ccccc21	inconclusive: 0.0009 µM [activator, full curve, poor fit]	
O=C(CN1CCN(c2ccccn2)CC1)NC1CCCC1		inactive: -1.64%

SMILES	Potency	activity change, negative = inhibition
COc1cc(NC(=O)c2cc3nc(C)cc(C)n3n2)c(OC)cc1Cl	inconclusive: 14.1 µM [inhibitor, partial curve]	
Cc1cc(C)n(S(=O)(=O)/C=C/c2ccccc2)n1		inactive: -19.1%
O=c1oc2cc(O)ccc2s1	inconclusive: 17.8 µM [inhibitor, partial curve, poor fit]	
C[C@@H]1CNCCN1S(=O)(=O)c1cccc2cnccc12		inactive: -1.89%
O=C(O)Cc1ccc(-c2ccccc2)cc1	inconclusive: 12.6 µM [inhibitor, full curve, poor fit]	
Cc1ccccc1NCCNc1ccccc1C	inconclusive: 15.8 µM [inhibitor, partial curve, poor fit]	
Cc1[nH]nc2c1C(c1cccc(O)c1)C1=C(CC(C)(C)CC1=O)N2 (stereo not given)		inactive: 3.18%
Cn1nnnc1Sc1ncnc2scc(-c3ccccc3Cl)c12	active: 15.8 µM	
Fc1cccc(Cl)c1Cn1nnc2c(-n3ccnc3)ncnc21		inactive: -13.5%
COC(=O)CC1C(=O)NCCN1C(=S)NC(=O)c1sc2ccccc2c1Cl (stereo not given)	inconclusive: 28.2 µM [inhibitor, partial curve, poor fit]	
CCS(=O)(=O)c1nnnn1-c1ccccc1S(C)(=O)=O	inconclusive: 10 µM [inhibitor, full curve]	
O=C(Nc1ccc(Cl)cc1C(F)(F)F)C(Sc1cccc[n+]1[O-])c1ccccc1 (stereo not given)		inactive: 5.2%
CC(C)(C)n1nnnc1C(c1ccc2ncccc2c1)N1CCSCC1 (stereo not given)	inconclusive: 3.16 µM [inhibitor, partial curve, poor fit]	
Cn1c(C(=O)N2CCN(c3ccc(Cl)cc3)CC2)cc2c(=O)[nH]c3ccccc3c21		inactive: -0.354%
CCN(Cc1ccncc1)C(=O)c1cc(Br)cc(Br)c1O		inactive: -3.22%
CCNc1nc(N)c(C(=O)c2ccc(Cl)s2)s1	inconclusive: 12.6 µM [inhibitor, partial curve, poor fit]	
COc1ccc(CNC(=O)CN(C(=O)CCC(=O)Nc2ccccn2)c2ccccc2OC)cc1		inactive: -2.31%
COc1ccc(C(=O)CSc2cc(C)nc3nc(C)nn23)cc1OC	inconclusive: 22.4 µM [inhibitor, partial curve, poor fit]	
O=c1c2ccccc2nnn1CSc1ncnc2ccccc12		inactive: -15.1%
COc1cc(Cc2cnc(N)nc2N)cc(OC)c1OC		inactive: 15.3%
